Measurements reported in publication PMC2806001.
These are yes or no findings as the source states them, for the method shown. Binding seen in cells or lysates may run through a third protein. Here binding means that the protein was enriched with, or labelled near, the bait; the list need not be complete. A no says only that the protein was not detected with the bait.

Sequences of proteins named here, by UniProt entry; tags and fusion partners are left off. Residues count along the entry.
UniProt Q9NXA8, residues 37-310: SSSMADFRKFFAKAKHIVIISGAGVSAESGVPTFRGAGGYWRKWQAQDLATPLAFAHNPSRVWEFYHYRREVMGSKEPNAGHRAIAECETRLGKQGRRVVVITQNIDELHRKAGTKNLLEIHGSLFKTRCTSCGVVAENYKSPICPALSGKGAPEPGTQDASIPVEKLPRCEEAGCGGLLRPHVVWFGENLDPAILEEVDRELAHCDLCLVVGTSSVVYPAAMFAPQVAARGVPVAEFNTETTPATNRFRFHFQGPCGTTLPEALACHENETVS
UniProt P10860, residues 54-558: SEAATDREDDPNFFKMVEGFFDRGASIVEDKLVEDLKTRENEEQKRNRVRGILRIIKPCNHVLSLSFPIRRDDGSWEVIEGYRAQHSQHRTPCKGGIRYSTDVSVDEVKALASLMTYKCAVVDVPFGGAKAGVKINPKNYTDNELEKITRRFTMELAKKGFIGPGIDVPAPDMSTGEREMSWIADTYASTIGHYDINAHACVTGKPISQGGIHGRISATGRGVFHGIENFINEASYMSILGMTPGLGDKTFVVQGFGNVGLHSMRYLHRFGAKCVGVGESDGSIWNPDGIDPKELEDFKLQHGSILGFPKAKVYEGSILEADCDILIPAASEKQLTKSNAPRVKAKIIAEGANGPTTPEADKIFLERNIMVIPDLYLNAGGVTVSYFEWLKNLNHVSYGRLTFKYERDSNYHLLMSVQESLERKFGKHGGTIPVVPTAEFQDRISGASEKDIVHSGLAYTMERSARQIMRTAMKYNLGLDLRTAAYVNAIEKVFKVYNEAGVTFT

What was measured:
[1] = biological target: T1, p66CH2CB WT (N-terminal domains CH2 and CB of p66Shc, residues 1-150) (UniProt P29353); assay: affinity purification with mass spectrometry; His-tagged bait (p66CH2CB as a mixture of dimeric and tetrameric state, or the Sirt5 control) saturating Talon resin; 3 mg mitochondrial lysate, 10 mM imidazole, 1 h at room temperature; eluate digested with trypsin and analysed by MudPIT; only the target purified
T1 sequence: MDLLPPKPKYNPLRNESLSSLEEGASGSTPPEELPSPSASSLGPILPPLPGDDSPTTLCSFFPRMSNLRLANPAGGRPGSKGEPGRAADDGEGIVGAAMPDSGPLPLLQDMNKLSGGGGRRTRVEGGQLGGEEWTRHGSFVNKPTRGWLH

Sirtuin 5 (Sirt5) = Sirtuin 5 (Sirt5) (UniProt Q9NXA8); assay: as above

binding [1]: no binding
binding (Sirtuin 5 (Sirt5)): no binding
Substance: glutamate-dehydrogenase 1, endogenous in mitochondrial lysate (from UniProt P10860 54-558)
